Laboratory results as given in US20240200081A1, “NUCLEIC ACID MOLECULE CONJUGATE HAVING PROLONGED IN VIVO HALF-LIFE” (APTACURE THERAPEUTICS LIMITED, published 2024).
Weaker means in comparison with the reference protein, sequence or condition of that experiment. Tags and fusion partners may be left off the protein sequences shown.

Biological target: T1, sclerostin (Homo sapiens) (UniProt Q9BQB4)
T1 sequence (limits assumed): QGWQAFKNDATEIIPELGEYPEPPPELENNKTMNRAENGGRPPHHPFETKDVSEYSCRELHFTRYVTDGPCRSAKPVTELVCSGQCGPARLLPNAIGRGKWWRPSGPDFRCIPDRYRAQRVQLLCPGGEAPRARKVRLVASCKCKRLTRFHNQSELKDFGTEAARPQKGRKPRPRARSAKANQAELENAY
Experiment: ELONA
Conditions: low binding, curve could not be fitted, purified recombinant protein, protein details: His6 (SELEX protein), label: biotin (ELONA), single-stranded DNA, variant of aptscl 3

Sequence: TGTTGTACATCGCCTTACGCACGTG [aptscl 3-6]
- binding result: binds more weakly
